Further values from the same series stand in other lists.
Legend:
Format in all cases: cell-based
Details in all cases: U-87MG ATCC
[1] = Inhibition of RTK/PI3K/AKT/mTOR signaling in human U87 cells assessed as down regulation of OTUD7B gene expression at cytotoxic IC50 measured after 48 hrs relative to control
[2] = Inhibition of RTK/PI3K/AKT/mTOR signaling in human U87 cells assessed as down regulation of SUPT5H gene expression at cytotoxic IC50 measured after 48 hrs relative to control
[3] = Inhibition of RTK/PI3K/AKT/mTOR signaling in human U87 cells assessed as down regulation of DSP gene expression at cytotoxic IC50 measured after 48 hrs relative to control
[4] = Inhibition of RTK/PI3K/AKT/mTOR signaling in human U87 cells assessed as down regulation of PLEKHM3 gene expression at cytotoxic IC50 measured after 48 hrs relative to control
[5] = Inhibition of RTK/PI3K/AKT/mTOR signaling in human U87 cells assessed as down regulation of ERCC6 gene expression at cytotoxic IC50 measured after 48 hrs relative to control
[6] = Inhibition of RTK/PI3K/AKT/mTOR signaling in human U87 cells assessed as down regulation of FAF1 gene expression at cytotoxic IC50 measured after 48 hrs relative to control
[7] = Inhibition of RTK/PI3K/AKT/mTOR signaling in human U87 cells assessed as down regulation of EIF4G2 gene expression at cytotoxic IC50 measured after 48 hrs relative to control
[8] = Inhibition of RTK/PI3K/AKT/mTOR signaling in human U87 cells assessed as up regulation of HNRNPA1 gene expression at cytotoxic IC50 measured after 48 hrs relative to control
[9] = Inhibition of RTK/PI3K/AKT/mTOR signaling in human U87 cells assessed as down regulation of MXD1 gene expression at cytotoxic IC50 measured after 48 hrs relative to control
[10] = Inhibition of RTK/PI3K/AKT/mTOR signaling in human U87 cells assessed as down regulation of LACC1 gene expression at cytotoxic IC50 measured after 48 hrs relative to control
[11] = Inhibition of RTK/PI3K/AKT/mTOR signaling in human U87 cells assessed as up regulation of MAGE family member F1 gene expression at cytotoxic IC50 measured after 48 hrs relative to control
[12] = Inhibition of RTK/PI3K/AKT/mTOR signaling in human U87 cells assessed as down regulation of SHCBP1 gene expression at cytotoxic IC50 measured after 48 hrs relative to control
[13] = Inhibition of RTK/PI3K/AKT/mTOR signaling in human U87 cells assessed as down regulation of ATP6V1A gene expression at cytotoxic IC50 measured after 48 hrs relative to control
[14] = Inhibition of RTK/PI3K/AKT/mTOR signaling in human U87 cells assessed as up regulation of GDP-mannose pyrophosphorylase A gene expression at cytotoxic IC50 measured after 48 hrs relative to control
[15] = Inhibition of RTK/PI3K/AKT/mTOR signaling in human U87 cells assessed as down regulation of GABRQ gene expression at cytotoxic IC50 measured after 48 hrs relative to control
[16] = Inhibition of RTK/PI3K/AKT/mTOR signaling in human U87 cells assessed as down regulation of UPF1 gene expression at cytotoxic IC50 measured after 48 hrs relative to control
[17] = Inhibition of RTK/PI3K/AKT/mTOR signaling in human U87 cells assessed as down regulation of HNRNPDL gene expression at cytotoxic IC50 measured after 48 hrs relative to control
[18] = Inhibition of RTK/PI3K/AKT/mTOR signaling in human U87 cells assessed as down regulation of GOLM1 gene expression at cytotoxic IC50 measured after 48 hrs relative to control
[19] = Inhibition of RTK/PI3K/AKT/mTOR signaling in human U87 cells assessed as up regulation of ARHGAP23 gene expression at cytotoxic IC50 measured after 48 hrs relative to control
[20] = Inhibition of RTK/PI3K/AKT/mTOR signaling in human U87 cells assessed as up regulation of NGEF gene expression at cytotoxic IC50 measured after 48 hrs relative to control
[21] = Inhibition of RTK/PI3K/AKT/mTOR signaling in human U87 cells assessed as up regulation of BNIP3L gene expression at cytotoxic IC50 measured after 48 hrs relative to control
[22] = Inhibition of RTK/PI3K/AKT/mTOR signaling in human U87 cells assessed as up regulation of DIRAS family GTPase 1 gene expression at cytotoxic IC50 measured after 48 hrs relative to control
[23] = Inhibition of RTK/PI3K/AKT/mTOR signaling in human U87 cells assessed as down regulation of PTPRA gene expression at cytotoxic IC50 measured after 48 hrs relative to control
[24] = Inhibition of RTK/PI3K/AKT/mTOR signaling in human U87 cells assessed as down regulation of ACSL1 gene expression at cytotoxic IC50 measured after 48 hrs relative to control
[25] = Inhibition of RTK/PI3K/AKT/mTOR signaling in human U87 cells assessed as down regulation of DLST gene expression at cytotoxic IC50 measured after 48 hrs relative to control
[26] = Inhibition of RTK/PI3K/AKT/mTOR signaling in human U87 cells assessed as up regulation of nucleobindin 2 gene expression at cytotoxic IC50 measured after 48 hrs relative to control
[27] = Inhibition of RTK/PI3K/AKT/mTOR signaling in human U87 cells assessed as down regulation of GOSR2 gene expression at cytotoxic IC50 measured after 48 hrs relative to control
[28] = Inhibition of RTK/PI3K/AKT/mTOR signaling in human U87 cells assessed as down regulation of SCML1 gene expression at cytotoxic IC50 measured after 48 hrs relative to control
[29] = Inhibition of RTK/PI3K/AKT/mTOR signaling in human U87 cells assessed as up regulation of deleted in primary ciliary dyskinesia homolog (mouse) gene expression at cytotoxic IC50 measured after 48 hrs relative to control
[30] = Inhibition of RTK/PI3K/AKT/mTOR signaling in human U87 cells assessed as down regulation of SNX2 gene expression at cytotoxic IC50 measured after 48 hrs relative to control
[31] = Inhibition of RTK/PI3K/AKT/mTOR signaling in human U87 cells assessed as up regulation of GRPEL1 gene expression at cytotoxic IC50 measured after 48 hrs relative to control
[32] = Inhibition of RTK/PI3K/AKT/mTOR signaling in human U87 cells assessed as up regulation of RAB29 gene expression at cytotoxic IC50 measured after 48 hrs relative to control

`CC(=O)C(=NNc1ccccc1C#N)C(C)=O` showed a log2FC [1] of -1.05, a log2FC [2] of -0.797 and a log2FC [3] of -0.374. For the same molecule, the log2FC [4] was -1, the log2FC [5] was -1.18 and the log2FC [6] was -0.755. The log2FC [7] was -0.671, the log2FC [8] was 0.477 and the log2FC [9] was -1.78. For the same molecule, the log2FC [10] was -1.18, the log2FC [11] was 0.68 and the log2FC [12] was -1.07. It also gave a log2FC [13] of -0.573, a log2FC [14] of 0.786 and a log2FC [15] of -1.6. For the same molecule, the log2FC [16] was -0.461, the log2FC [17] was -0.907 and the log2FC [18] was -0.49. It also gave a log2FC [19] of 0.469, a log2FC [20] of 2.03 and a log2FC [21] of 1.78. The log2FC [22] was 1.32, the log2FC [23] was -0.47 and the log2FC [24] was -0.694. The log2FC [25] was -0.44, the log2FC [26] was 1.12 and the log2FC [27] was -0.832. It also gave a log2FC [28] of -2.49, a log2FC [29] of 1.07 and a log2FC [30] of -0.772. For the same molecule, the log2FC [31] was 0.593 and the log2FC [32] was 1.82.
